Screening data, single-dose tests

The filed quantity is “Percent Effect” (%).
The controls that fix the scale are not given in the record; negative values are as filed.
The compounds are a random part of those screened.

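Assay of Toxoplasma gondii numbers, read through their beta-galactosidase reporter with a colour substrate. Concentration: 50 µM. Higher reads as fewer parasites (inferred from which compounds were picked for retests). Of about 18,000 compounds tested this way, about 170 (0.94%) reached 50% or more in at least one test.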

With COc1ccc(C(F)(F)F)cn1 the screen gave 31.18%. O=C(C1CCc2ccccc21)N1CCS(=O)(=O)CC1 (centres undefined) gave -0.6682%. CN(C)C(=O)CNc1ccc(OC(F)F)c(Cl)c1 read -7.055%. For CC(C)NC(=O)CNCc1ccccc1OC(F)F the result was 0.1226%. With C1CC(CN2CCOCC2)CN1 (centres undefined) the screen gave 0.2101%. With CCCC(CN)CCO (centres undefined) the screen gave 2.977%. For Cn1cnnc1CNC(=O)c1sccc1OC(F)F the result was 4.94%.

Result for COc1cccc(CNCCn2cccn2)c1OC was -4.824%. CC(C(=O)NC1CC1)N1CCNCC1 (centres undefined) read -3.036%. Result for COC(=O)CC1C(=O)NCCN1Cc1ccc(Br)o1 (centres undefined) was 8.11%. Result for NCC1CCN(C(=O)c2ccccc2C(F)(F)F)C1 (centres undefined) was 5.341%. For O=C(Cn1cc(C(F)(F)F)ccc1=O)N1CCCC1 the result was -18.46%. Result for CCC[C@H]1CN(C(=O)c2ccc(CO)o2)C[C@@H]1N(C)C was 2.019%. With O=C(CC1NCCNC1=O)Nc1ccc(F)c(Cl)c1 (centres undefined) the screen gave -17.49%.

Cc1[nH]ncc1C(=O)NCCCSCC(C)C gave 11.62%. For Cc1cccc(CC(=O)NCC2CCNCC2)c1 the result was 1.563%. With N[C@@H]1CCO[C@@H](c2cccnc2)C1 the screen gave -4.992%. N[C@@H]1CCO[C@H]1c1ccnn1CC1CC1 read -5.043%. COCCN1CCCC(Nc2ccc(Cl)cn2)C1 (centres undefined) read 7.88%. O=C1CC(N2CCOCC2)C(=O)N1C1CCCC1 (centres undefined) read 2.048%. CNC(=O)c1nn(C)cc1NC(=O)C1CCCCC1 read -74.3%.

Result for CCOC(=O)Nc1ccc(-n2cnnn2)cc1OC was -5.033%. With Cc1ccc(C(=O)N[C@@H]2CN(C)C[C@H]2CN(C)C)s1 the screen gave -3.084%. Cc1ccnc(Oc2cccc(C(=O)NCCO)c2)n1 read -13.6%. COc1ccc(C)cc1NC(=O)CSc1nncn1C read 0.9562%. O=C(NC1CC1)c1cccc2cn[nH]c12 read -32.43%. NC1(C(=O)Nc2ccccc2)CC1 gave 16.06%. For NC(=O)c1ccc(CNC2CCCc3sccc32)o1 (centres undefined) the result was -6.502%.

For CCCSCC(=O)NCc1cc(O)nc(C)n1 the result was 7.521%. Result for c1coc(-c2nc(N3CCOCC3)no2)c1 was 0.02865%. CCC(=O)N1CCCc2cc(NS(C)(=O)=O)ccc21 gave 28.26%. O=S(=O)(C1CNC1)N1CCc2ccccc21 gave -23.94%.

Source: ChEMBL document CHEMBL3988442, “University of Dundee, Small-Polar-MMV Screening Library” (2021).